These are yes or no findings as the source states them, for the method shown. Binding seen in cells or lysates may run through a third protein.

Sequences of proteins named here, by UniProt entry; tags and fusion partners are left off. Residues count along the entry.
UniProt P28986, residues 25-511: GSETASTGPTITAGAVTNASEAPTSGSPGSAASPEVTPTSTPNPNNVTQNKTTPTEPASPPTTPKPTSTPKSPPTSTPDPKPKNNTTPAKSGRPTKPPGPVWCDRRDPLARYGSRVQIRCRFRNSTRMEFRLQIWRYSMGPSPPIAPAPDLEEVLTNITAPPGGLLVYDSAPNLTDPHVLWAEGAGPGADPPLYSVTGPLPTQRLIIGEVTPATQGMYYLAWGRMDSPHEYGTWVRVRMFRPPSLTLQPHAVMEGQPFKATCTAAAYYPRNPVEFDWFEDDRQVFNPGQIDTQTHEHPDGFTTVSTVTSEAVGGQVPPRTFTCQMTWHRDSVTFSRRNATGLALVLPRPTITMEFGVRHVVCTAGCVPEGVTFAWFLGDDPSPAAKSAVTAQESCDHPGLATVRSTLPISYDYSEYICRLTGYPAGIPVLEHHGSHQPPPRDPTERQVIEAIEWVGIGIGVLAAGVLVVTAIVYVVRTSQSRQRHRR

For the test, the target named is Apolipoprotein E isoform 3 (human (endogenous in Huh-7)) (UniProt P02649). As to the kind of experiment: co-IP; Huh-7 cells (expressing ApoE 3) mock treated or infected with HSV1 at MOI 10; lysis in 0.05 M Tris-HCl pH 8, 0.15 M NaCl, 1% Triton X-100; precipitation with anti-ApoE or anti-HSV1-gE antibodies on protein A agarose, 4 °C overnight; blots for ApoE, gB, gC, gD, gE.

“HSV1 glycoprotein B (from UniProt P06437 31-904)”: the binding result is recorded as “no binding”.

“HSV1 glycoprotein C (from UniProt P28986 25-511)”: the binding entry is reported as “no binding”.

The record behind these values is PMC11846946.
